SMILES strings stand for the structures. Where “and” joins values, the source holds several entries; their conditions need not be identical. Equal values may be shown once.

This series deals with amyloid in transgenic islets cells expressing human IAPP. The experiment in a line: Electron micrograph analysis of amyloid in cultured transgenic islets. Type of series: cell-based, mouse. An excerpt:
These are used as a test system for determining the toxicity and effect of putative amyloid inhibitors in short term culture systems. Whereas normal mice can be used to determine toxicity of compounds added to the media, amyloid fibrils form only in murine islets isolated from transgenic mice expressing the gene for human IAPP (transgene incorporation was confirmed by PCR). These islets are isolated in a similar way to that of human islets and are handpicked from the digest and cultured in 16.7 mM glucose as above. Amyloid fibrils formed within 4 days of culture and can be quantified by quantitative electron microscopy. […] The cells were cultured for 6 days in 11.1 mM glucose and RPMI.
Transgenic islets cells were cultured as described above, for 7 days and the media changed every two days. At the end of the culture period the islets were fixed in 2.5% glutaraldehyde in 0.1M sodium phosphate buffer (pH 7.2) for one hour and post-fixed in 1% osmium tetroxide, and embedded in Spurr's resin (Taab Laboratories, Reading, UK) or contrast enhanced in 2% Uranyl Acetate, dehydrated in methanol and embedded in LRGold (Taab, as previous). […]
Images of 3 islet sections at a low magnification were prepared. […] The total islet area, together with the area of intra and extra cellular amyloid was then calculated using image analysis (Kontron Image Processor). […]

For the molecule `COc1ccc(S(=O)(=O)O)c2cccnc12` [vii, 8-methoxyquinoline-5-sulfonic acid], the Total islet area (Average of 3 islets, 7 days culture) amounted to 5407.21 μm^2; the Total islet area (individual islets 1-3, 7 days culture) was 5744.23 μm^2 and 7360.63 μm^2 and 3616.76 μm^2.

The values above are taken from patent publication US20070015737A1, “Compounds for inhibiting diseases and preparing cells for transplantation” (Neurochem (International) Limited, priority 1999, published 2007).
